# Data taken from PubChem BioAssay AID1671190 (National Center for Advancing Translational Sciences (NCATS), 2021).
# Sequences of proteins named here, by UniProt entry; tags and fusion partners are left off. A change or cut given only in a name is not applied to a line headed by its entry.
# UniProt P18054: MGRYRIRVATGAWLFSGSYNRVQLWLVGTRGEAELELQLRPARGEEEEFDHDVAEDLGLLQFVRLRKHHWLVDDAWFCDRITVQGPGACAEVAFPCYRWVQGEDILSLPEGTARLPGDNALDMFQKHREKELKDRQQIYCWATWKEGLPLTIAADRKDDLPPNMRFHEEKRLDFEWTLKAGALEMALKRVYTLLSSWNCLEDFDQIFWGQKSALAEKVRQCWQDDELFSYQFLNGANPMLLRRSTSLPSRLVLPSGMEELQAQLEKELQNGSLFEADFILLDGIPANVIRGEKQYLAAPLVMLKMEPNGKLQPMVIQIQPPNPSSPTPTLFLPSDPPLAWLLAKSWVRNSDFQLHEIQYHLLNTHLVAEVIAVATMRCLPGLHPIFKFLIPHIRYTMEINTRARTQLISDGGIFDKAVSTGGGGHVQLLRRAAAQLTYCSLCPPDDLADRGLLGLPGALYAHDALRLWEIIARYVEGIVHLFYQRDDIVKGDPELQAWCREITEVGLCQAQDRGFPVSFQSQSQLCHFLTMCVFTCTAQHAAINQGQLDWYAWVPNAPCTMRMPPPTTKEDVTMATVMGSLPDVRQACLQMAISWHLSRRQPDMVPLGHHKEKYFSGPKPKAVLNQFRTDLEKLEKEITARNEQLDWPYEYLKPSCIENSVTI
# Hit rate of the full screen: of about 580,000 compounds, about 6,100 (1.1%) were called active. The shares of active, inactive and inconclusive entries below differ from those in the screen. Calls come from the whole dose curve; as a rule, active = well fitted inhibition curve with a large enough effect; inconclusive = small, poorly fitted or top-dose-only effect, or another doubt; inactive = no such curve, though single readings can be large or run the other way. Potencies beside an inconclusive call are fits to weak or partial responses and may not hold up.
# Biological target: Polyunsaturated fatty acid lipoxygenase ALOX12 (Homo sapiens) (UniProt P18054)
# Experiment: Primary qHTS assay for inhibitors of human arachidonate 12S-lipoxygenase (ALOX12): Round 2
# Settings: purified 12hLO, xylenol orange hydroperoxide absorbance; activity change, negative = inhibition: at 108 µM (top of the series) unless noted
# Method in brief: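 Purified human 12hLO at 150 nM in 25 mM Hepes, 0.01% Triton X-100, pH 7.0, preincubated 15 min at room temperature with compound. Reaction started with 40 uM arachidonic acid, 30 min at room temperature. Hydroperoxide measured by Fe-xylenol orange, 573/405 nm absorbance ratio.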
# % is set by controls: 0 for no effect and ±100 for the full control effect; potency is the fitted concentration of half-maximal effect.
Structure (SMILES),Potency,"activity change, negative = inhibition"
COc1ccc(C2Cn3nnc(C(=O)NC4CCCCCCC4)c3CO2)cc1 (configuration not stated),"inconclusive: 35.5 µM [inhibitor, partial curve, poor fit]",
Cc1c(NC(=S)NC(=O)c2cccc3ccccc23)cccc1C(=O)O,"inconclusive: 112 µM [inhibitor, partial curve, poor fit]",
CCCCn1nc(C(=O)Nc2ccc(OCC(=O)N(C)C)cc2)c2ccccc2c1=O,,inactive: 19.6%
COCC(=O)NCCc1ccc(S(N)(=O)=O)cc1,"inconclusive: 1.26 µM [inhibitor, full curve, poor fit]",
Cc1nn2c(c1-c1ccccc1-c1ccccc1)N(Cc1ccc(O)cc1)CCC2,"inconclusive: 12.6 µM [inhibitor, full curve]",
CN(C)c1ccc(CN2CCC3(CC2)C(=NC2CCCCC2)NC(=O)N3c2cc(F)cc(F)c2)cc1,"inconclusive: 89.1 µM [inhibitor, partial curve, poor fit]",
CCCN(CCC)CC(O)CN(c1ccc(OC)cc1)S(=O)(=O)c1ccc(C)cc1 (configuration not stated),"inconclusive: 25.1 µM [inhibitor, partial curve]",
COc1ccc2c(c1)C(n1c(C)ccc1C)C(=O)N2C (configuration not stated),active: 11.2 µM,
CCOc1ccccc1NC(=O)N1CCCC1C(=O)Nc1ccc(NC(C)=O)cc1 (configuration not stated),,inactive: -6.06%
COc1ccc2[nH]cc(CCNC(=S)NCCc3ccccc3)c2c1,"inconclusive: 50.1 µM [inhibitor, partial curve, poor fit]",
CCOc1ccccc1NC(=S)Nc1ccc2cn[nH]c2c1,"inconclusive: 56.2 µM [inhibitor, partial curve, poor fit]",
Cc1ccc(N2C(S)=C(C#N)C(=O)NC2c2ccco2)cc1 (configuration not stated),"inconclusive: 39.8 µM [inhibitor, partial curve]",
CC(C)Cn1c(SCC(=O)O)nnc1-c1cccc(S(=O)(=O)N2CCOCC2)c1,,inactive: 0.489%
COc1cc(Cl)ccc1OCc1cc(C(=O)NCc2cc(C(C)C)no2)no1,"inconclusive: 7.08 µM [inhibitor, full curve, poor fit]",
N#Cc1ccc(CC(=O)c2ccccc2)[nH]c1=O,"inconclusive: 56.2 µM [inhibitor, partial curve, poor fit]",
COc1cccc(CNC(=O)N2CCN(S(=O)(=O)c3ccc(C)cc3)CC2)c1,"inconclusive: 89.1 µM [inhibitor, single point]",
Cc1cccc(N2CCN(C(=O)C(C)n3nc(C)n4c(cc5occc54)c3=O)CC2)c1C (configuration not stated),"inconclusive: 112 µM [inhibitor, partial curve, poor fit]",
CCOC(=O)N1CCN(C(=O)/C(=C/c2ccc(Cl)cc2)NC(=O)c2ccccc2)CC1,"inconclusive: 112 µM [inhibitor, single point]",
Cc1nc(SCc2csc(Cc3ccc(Cl)cc3)n2)sc1CC(N)=O,"inconclusive: 20 µM [inhibitor, full curve, poor fit]",
COc1ccc(C2c3c(n(C)c4ccccc34)C(=O)N2CC(=O)Nc2ccc(C)cc2Cl)cc1 (configuration not stated),"inconclusive: 112 µM [inhibitor, partial curve, poor fit]",
Nc1nccnc1C(=O)Nc1cccc(Cn2ccnc2)c1,,inactive: 3.92%

Structure (SMILES),Potency,"activity change, negative = inhibition"
CCCCCCn1c(=O)n2n(c1=O)C[C@]1(OC(=O)Nc3c(C)noc3C)CN(S(=O)(=O)c3ccc(C)cc3)C[C@]1(O)C2,"inconclusive: 31.6 µM [inhibitor, partial curve]",
COC(=O)Cc1cc(=O)n(-c2nc3ccccc3s2)[nH]1,active: 6.31 µM,
Cc1ccc(S(=O)(=O)N(C)C)cc1NC(=O)COc1ccc(-c2nnco2)cc1,,inactive: 10.5%
CCOC(=O)C1=C(O)C(=O)N(Cc2ccccc2)C1,"inconclusive: 35.5 µM [inhibitor, partial curve, poor fit]",
CN(Cc1ccccc1)c1ncnc(N)c1[N+](=O)[O-],,inactive: -21.6%
CCOC(=O)[C@H]1[C@H]2COc3ccc(C)cc3[C@@H]2N2C(=O)c3cc(C)ccc3NC(=O)[C@@]12C,"inconclusive: 10 µM [inhibitor, full curve, poor fit]",
O=C1CCCC2=C1Sc1ccc(Cl)cc1N2,"inconclusive: 22.4 µM [inhibitor, single point]",
Cc1ccc(S(=O)(=O)N2CCCc3cc(NS(=O)(=O)c4ccc(F)cc4)ccc32)cc1,"inconclusive: 112 µM [inhibitor, partial curve, poor fit]",
CCOC(=O)N1CCN(c2ccc(Cl)c(Cl)c2)CC1,"inconclusive: 44.7 µM [inhibitor, partial curve, poor fit]",
C[C@@H]1CN([C@@H](C)CO)C(=O)CCCn2nncc2CO[C@H]1CN(C)S(=O)(=O)c1cccs1,"inconclusive: 89.1 µM [inhibitor, single point]",
Cc1ccc(S(=O)(=O)Cn2nnnc2C(c2ccccc2)N2CCN(c3ncccn3)CC2)cc1 (configuration not stated),,inactive: 0%
CN(C)C(=O)c1cc(Br)c(Br)s1,,inactive: 9.7%
CC(C)N1C(=O)C2(CCCC2)C1C(=O)N1CCCC1 (configuration not stated),,inactive: 19.6%
Cc1cc(Cl)ccc1OCCCC(=O)N1CCN(C(=O)c2ccco2)CC1,"inconclusive: 44.7 µM [inhibitor, partial curve, poor fit]",
CCOc1ccc2nc(NS(=O)(=O)c3ccc(NC(C)=O)cc3)sc2c1,"inconclusive: 1.12 µM [inhibitor, full curve, poor fit]",
O=C(NCC(F)(F)F)C1C(=O)Nc2ccccc2C(=O)N1Cc1ccccc1 (configuration not stated),"inconclusive: 3.98 µM [inhibitor, full curve, poor fit]",
Cc1cc(=O)n(CC(=O)Nc2ccc(N(C)C)cc2)c(-c2ccc(F)cc2)n1,"inconclusive: 63.1 µM [inhibitor, partial curve, poor fit]",
CCC(C)Sc1ccc([C@@H]2[C@H]3C(=O)N(CC)C(=O)[C@H]3[C@]3(C(=O)OC)CCCN23)cc1OC (some centres not stated),"inconclusive: 15.8 µM [inhibitor, partial curve]",
COc1cccc(C(O)Cc2nc3ccccc3n2C)c1OC (configuration not stated),"inconclusive: 126 µM [inhibitor, partial curve, poor fit]",
O=S(=O)(c1cccc(-c2n[nH]c(=S)n2-c2cccc(C(F)(F)F)c2)c1)N1CCOCC1,"inconclusive: 44.7 µM [inhibitor, partial curve, poor fit]",
COc1cccc(CNC(=O)N2CCN(Cc3ccc(Br)s3)CC2)c1,"inconclusive: 50.1 µM [inhibitor, partial curve, poor fit]",

# A different layout for 5 compounds above.
Structure (SMILES)	Potency	activity change, negative = inhibition
CN(C)C(=O)c1cc(Br)c(Br)s1		inactive: 9.7%
CC(C)N1C(=O)C2(CCCC2)C1C(=O)N1CCCC1 (configuration not stated)		inactive: 19.6%
Cc1cc(Cl)ccc1OCCCC(=O)N1CCN(C(=O)c2ccco2)CC1	inconclusive: 44.7 µM [inhibitor, partial curve, poor fit]	
CCOc1ccc2nc(NS(=O)(=O)c3ccc(NC(C)=O)cc3)sc2c1	inconclusive: 1.12 µM [inhibitor, full curve, poor fit]	
O=C(NCC(F)(F)F)C1C(=O)Nc2ccccc2C(=O)N1Cc1ccccc1 (configuration not stated)	inconclusive: 3.98 µM [inhibitor, full curve, poor fit]	

# (listing goes on)

Structure (SMILES),Potency,"activity change, negative = inhibition"
CC(C)(C)c1ccc(-c2c(C(=O)O)c(C(=O)O)c3n2CSC3)cc1,"inconclusive: 31.6 µM [inhibitor, partial curve, poor fit]",
COc1ccc(OC)c(NC(=O)c2ccc(Cl)cc2)c1,"inconclusive: 141 µM [inhibitor, single point]",
O=C(/C=C/c1cccnc1)c1ccc2c(c1)OCCCO2,"inconclusive: 3.98 µM [inhibitor, full curve, poor fit]",
COc1ccc(C(=O)NCC(=O)Nc2ccc(-c3ccccc3)cc2)cc1,"inconclusive: 112 µM [inhibitor, partial curve, poor fit]",
COCc1nnc(NC(=O)c2cccc(NC(=O)c3ccccc3)c2)s1,"inconclusive: 39.8 µM [inhibitor, partial curve, poor fit]",
Cc1ccc(N2CC(NC(=O)c3ccc(S(=O)(=O)N(C)C)cc3)CC2=O)cc1C (configuration not stated),"inconclusive: 141 µM [inhibitor, partial curve, poor fit]",
Cc1ccc(OCC(=O)N(C)CC(=O)Nc2cccc(F)c2)cc1,"inconclusive: 39.8 µM [inhibitor, partial curve]",
COCC(=O)NC[C@H]1O[C@@H](CO)[C@@H](O)[C@H]1N1CCc2ccccc2C1,"inconclusive: 22.4 µM [inhibitor, full curve]",
CCN(CC)S(=O)(=O)c1ccc(N2CCCC2)c(NS(=O)(=O)c2ccc3ccccc3c2)c1,,inactive: -35%
COc1cnn(-c2ccc(C)cc2)c(=O)c1SCc1ccccc1,,inactive: -4.76%
Cc1nn2c(c1-c1cccnc1N1CCOCC1)N(C(=O)c1cc3ccccc3n1C)CCC2,"inconclusive: 20 µM [inhibitor, full curve]",
Cc1cccc(-n2c(Cc3cc(=O)[nH]c(=O)[nH]3)nnc2SCC(=O)c2ccccc2)c1,"inconclusive: 35.5 µM [inhibitor, partial curve, poor fit]",
COc1cccc(OC)c1C(=O)Nc1cc(C)c(O)c(-c2nc3cc(C)ccc3o2)c1,,inactive: 2%
COc1ccc(C(=O)OCCc2sc[n+](CC(=O)c3ccccc3)c2C)cc1,"inconclusive: 63.1 µM [inhibitor, single point]",
CC(C)(C)c1ccc(OCCCNC2CCCC2)cc1,"inconclusive: 2.82 µM [inhibitor, full curve]",
O=C(O)c1cc(-c2ccc(N3CCOCC3)cc2)nn1-c1ccc(F)cc1F,"inconclusive: 8.91 µM [inhibitor, partial curve]",
CCOCCCNCc1ccc(OCc2ccc(F)cc2)c(OC)c1,"inconclusive: 50.1 µM [inhibitor, single point]",
CCCc1cc(=O)[nH]c(SCC(=O)N(C)CC(=O)Nc2ccccc2CC)n1,,inactive: 0%
CCn1c(CN2CCN(c3cccc(C)c3C)CC2)n[nH]c1=S,"inconclusive: 50.1 µM [inhibitor, partial curve, poor fit]",
Cc1c(C)n(Cc2ccccc2)c2ccc(C(=O)NCC(C)c3ccccc3)cc12 (configuration not stated),"inconclusive: 31.6 µM [inhibitor, partial curve, poor fit]",
